From paper PMC4738311
No constants are given. Whether binding was seen depends on the method and setting. In cells and extracts the contact can be indirect. These calls come from enrichment with a bait or labelling near it, and not all partners need be listed.

The chains behind the UniProt entries cited, without tags or fusion partners. Where a name states a change or a piece, a line headed by the entry shows the natural chain unless it says otherwise.
UniProt P62258: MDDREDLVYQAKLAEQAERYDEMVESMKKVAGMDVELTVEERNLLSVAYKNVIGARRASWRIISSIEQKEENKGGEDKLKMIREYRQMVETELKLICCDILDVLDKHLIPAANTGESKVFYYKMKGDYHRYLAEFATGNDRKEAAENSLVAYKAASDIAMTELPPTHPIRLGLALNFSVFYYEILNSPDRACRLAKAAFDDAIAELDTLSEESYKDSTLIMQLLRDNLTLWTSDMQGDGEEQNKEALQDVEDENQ
UniProt P62333: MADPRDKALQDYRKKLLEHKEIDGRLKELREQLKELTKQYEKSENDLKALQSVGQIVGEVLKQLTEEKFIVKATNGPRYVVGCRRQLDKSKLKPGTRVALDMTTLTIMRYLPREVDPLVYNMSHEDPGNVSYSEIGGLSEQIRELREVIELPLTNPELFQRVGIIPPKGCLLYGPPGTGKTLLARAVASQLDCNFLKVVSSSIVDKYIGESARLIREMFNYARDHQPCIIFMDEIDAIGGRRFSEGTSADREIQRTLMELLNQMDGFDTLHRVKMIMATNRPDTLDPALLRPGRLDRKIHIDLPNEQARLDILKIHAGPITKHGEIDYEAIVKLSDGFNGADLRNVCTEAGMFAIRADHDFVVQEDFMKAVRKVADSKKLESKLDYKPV
UniProt P53621: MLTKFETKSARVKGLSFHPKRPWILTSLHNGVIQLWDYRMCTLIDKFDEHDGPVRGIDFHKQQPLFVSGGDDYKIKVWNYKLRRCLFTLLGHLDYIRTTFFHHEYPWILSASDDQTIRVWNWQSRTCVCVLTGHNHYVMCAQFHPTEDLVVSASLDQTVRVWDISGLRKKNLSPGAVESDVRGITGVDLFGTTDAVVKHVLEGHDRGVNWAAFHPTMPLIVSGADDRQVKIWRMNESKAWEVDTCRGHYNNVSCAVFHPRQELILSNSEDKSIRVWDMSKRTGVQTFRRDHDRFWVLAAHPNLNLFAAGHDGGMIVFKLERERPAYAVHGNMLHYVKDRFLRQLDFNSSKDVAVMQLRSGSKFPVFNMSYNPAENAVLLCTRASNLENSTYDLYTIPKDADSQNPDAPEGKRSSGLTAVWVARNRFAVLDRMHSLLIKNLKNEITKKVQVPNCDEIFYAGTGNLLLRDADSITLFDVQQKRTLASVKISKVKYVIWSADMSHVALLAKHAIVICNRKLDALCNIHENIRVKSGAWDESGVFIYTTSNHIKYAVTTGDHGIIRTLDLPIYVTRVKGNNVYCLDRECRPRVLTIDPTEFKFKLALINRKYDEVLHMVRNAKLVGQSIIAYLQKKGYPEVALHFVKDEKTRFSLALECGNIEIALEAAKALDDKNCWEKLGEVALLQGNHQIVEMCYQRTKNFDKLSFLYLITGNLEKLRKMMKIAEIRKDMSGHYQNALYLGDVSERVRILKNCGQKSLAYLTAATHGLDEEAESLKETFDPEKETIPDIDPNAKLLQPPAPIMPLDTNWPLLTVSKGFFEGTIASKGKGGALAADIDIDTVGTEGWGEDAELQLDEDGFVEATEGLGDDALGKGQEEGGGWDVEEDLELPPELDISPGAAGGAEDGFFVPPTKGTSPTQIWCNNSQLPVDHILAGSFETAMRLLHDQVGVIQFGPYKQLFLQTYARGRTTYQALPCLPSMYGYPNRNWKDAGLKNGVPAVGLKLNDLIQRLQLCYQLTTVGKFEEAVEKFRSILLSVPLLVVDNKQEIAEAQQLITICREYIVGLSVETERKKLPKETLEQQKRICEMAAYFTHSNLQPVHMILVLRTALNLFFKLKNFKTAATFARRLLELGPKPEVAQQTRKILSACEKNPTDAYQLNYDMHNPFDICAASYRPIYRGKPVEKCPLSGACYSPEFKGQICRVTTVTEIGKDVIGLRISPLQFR
UniProt Q08945: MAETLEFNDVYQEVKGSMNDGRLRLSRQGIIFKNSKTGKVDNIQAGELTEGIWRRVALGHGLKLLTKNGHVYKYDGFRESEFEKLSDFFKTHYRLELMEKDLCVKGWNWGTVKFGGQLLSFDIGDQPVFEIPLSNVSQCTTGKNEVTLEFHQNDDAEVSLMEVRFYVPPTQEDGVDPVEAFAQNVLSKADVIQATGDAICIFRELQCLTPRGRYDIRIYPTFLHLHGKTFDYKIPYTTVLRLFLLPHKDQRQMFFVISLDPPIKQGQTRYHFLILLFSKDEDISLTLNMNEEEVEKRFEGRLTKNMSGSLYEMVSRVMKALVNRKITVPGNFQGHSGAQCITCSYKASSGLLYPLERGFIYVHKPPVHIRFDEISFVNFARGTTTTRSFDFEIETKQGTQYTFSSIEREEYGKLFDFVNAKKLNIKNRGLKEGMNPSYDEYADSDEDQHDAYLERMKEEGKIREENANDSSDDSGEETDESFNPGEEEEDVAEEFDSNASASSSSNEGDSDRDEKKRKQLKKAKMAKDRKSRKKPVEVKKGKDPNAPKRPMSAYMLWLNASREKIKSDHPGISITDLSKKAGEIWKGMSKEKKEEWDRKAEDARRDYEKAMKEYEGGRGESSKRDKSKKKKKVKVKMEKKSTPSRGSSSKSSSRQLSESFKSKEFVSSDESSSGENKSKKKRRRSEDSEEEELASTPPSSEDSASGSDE
UniProt E9PAV3: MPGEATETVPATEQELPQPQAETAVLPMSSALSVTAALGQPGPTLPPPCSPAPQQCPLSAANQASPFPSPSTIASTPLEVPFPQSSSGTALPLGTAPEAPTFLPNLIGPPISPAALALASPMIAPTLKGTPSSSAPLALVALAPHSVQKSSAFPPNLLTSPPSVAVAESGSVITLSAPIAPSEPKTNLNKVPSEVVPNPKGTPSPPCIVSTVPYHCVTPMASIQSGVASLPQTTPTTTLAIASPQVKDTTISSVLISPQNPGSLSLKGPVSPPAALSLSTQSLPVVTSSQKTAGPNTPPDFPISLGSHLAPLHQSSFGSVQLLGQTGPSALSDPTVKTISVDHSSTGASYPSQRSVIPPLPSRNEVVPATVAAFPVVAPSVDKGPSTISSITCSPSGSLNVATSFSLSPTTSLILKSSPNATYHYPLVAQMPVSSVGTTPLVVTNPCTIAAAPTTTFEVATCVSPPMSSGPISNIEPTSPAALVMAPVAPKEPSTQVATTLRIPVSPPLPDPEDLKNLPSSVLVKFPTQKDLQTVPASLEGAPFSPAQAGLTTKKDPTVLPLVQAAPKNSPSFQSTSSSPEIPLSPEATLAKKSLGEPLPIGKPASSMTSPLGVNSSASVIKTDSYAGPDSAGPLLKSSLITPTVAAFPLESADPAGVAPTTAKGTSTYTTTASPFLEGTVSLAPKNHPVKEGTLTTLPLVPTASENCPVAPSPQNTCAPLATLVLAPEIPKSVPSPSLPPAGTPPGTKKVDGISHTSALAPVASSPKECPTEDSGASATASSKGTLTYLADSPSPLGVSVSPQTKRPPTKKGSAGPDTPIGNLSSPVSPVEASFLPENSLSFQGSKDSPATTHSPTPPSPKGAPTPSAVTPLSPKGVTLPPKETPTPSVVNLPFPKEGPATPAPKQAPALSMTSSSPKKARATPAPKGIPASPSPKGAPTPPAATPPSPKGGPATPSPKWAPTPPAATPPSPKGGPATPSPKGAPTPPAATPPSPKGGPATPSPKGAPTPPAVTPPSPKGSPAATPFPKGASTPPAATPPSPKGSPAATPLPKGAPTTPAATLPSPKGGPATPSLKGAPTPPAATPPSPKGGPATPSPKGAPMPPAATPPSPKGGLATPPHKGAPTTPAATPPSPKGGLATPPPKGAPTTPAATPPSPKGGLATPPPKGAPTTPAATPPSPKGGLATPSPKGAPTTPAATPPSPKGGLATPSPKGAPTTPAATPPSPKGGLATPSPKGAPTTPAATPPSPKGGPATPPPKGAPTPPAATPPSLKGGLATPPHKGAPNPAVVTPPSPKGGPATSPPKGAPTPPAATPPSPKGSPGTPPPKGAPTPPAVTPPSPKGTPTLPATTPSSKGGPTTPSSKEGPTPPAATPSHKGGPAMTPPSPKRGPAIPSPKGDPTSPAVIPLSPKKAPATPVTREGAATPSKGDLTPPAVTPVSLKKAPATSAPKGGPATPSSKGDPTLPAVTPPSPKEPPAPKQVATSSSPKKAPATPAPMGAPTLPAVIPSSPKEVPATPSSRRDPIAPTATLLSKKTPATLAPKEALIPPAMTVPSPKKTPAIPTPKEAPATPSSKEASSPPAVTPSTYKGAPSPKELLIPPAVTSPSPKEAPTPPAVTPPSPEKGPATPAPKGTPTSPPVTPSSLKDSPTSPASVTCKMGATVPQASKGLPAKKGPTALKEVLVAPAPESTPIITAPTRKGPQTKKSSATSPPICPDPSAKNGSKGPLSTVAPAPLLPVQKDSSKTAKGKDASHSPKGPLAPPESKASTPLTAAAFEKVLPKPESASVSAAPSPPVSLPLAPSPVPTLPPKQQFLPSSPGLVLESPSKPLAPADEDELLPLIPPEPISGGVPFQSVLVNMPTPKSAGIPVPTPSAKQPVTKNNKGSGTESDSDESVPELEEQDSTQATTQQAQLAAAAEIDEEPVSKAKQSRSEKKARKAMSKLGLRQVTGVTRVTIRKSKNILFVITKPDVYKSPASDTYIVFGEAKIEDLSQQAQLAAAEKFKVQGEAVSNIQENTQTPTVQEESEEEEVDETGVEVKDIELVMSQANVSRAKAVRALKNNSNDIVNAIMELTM
UniProt P67809: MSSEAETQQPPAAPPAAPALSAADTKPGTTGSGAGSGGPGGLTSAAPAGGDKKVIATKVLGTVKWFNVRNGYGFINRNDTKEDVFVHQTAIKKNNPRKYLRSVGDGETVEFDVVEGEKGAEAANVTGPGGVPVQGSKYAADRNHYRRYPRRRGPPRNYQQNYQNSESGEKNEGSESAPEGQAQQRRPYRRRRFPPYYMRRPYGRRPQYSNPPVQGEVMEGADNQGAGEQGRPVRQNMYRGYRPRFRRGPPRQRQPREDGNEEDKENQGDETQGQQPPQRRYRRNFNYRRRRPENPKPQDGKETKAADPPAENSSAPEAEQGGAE
UniProt Q14978: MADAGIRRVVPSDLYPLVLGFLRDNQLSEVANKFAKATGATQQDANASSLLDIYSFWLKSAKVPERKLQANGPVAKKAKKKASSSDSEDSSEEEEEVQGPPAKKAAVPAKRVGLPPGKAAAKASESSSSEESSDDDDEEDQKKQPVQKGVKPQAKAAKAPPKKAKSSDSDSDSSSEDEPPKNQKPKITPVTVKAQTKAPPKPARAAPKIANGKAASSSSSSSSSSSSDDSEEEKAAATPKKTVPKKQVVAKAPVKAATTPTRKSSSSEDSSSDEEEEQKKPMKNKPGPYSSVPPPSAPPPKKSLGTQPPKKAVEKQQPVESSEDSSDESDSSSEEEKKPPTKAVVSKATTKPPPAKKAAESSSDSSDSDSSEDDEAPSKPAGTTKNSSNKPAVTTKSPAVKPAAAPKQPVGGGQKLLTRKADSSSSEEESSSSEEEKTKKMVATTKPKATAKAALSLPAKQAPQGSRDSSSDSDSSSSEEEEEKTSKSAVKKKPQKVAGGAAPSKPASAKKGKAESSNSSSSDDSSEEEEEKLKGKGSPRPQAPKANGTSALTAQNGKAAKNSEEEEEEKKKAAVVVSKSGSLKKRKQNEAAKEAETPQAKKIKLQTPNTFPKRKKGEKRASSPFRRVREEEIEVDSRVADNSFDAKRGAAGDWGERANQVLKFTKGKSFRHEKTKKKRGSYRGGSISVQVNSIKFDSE
UniProt P30153: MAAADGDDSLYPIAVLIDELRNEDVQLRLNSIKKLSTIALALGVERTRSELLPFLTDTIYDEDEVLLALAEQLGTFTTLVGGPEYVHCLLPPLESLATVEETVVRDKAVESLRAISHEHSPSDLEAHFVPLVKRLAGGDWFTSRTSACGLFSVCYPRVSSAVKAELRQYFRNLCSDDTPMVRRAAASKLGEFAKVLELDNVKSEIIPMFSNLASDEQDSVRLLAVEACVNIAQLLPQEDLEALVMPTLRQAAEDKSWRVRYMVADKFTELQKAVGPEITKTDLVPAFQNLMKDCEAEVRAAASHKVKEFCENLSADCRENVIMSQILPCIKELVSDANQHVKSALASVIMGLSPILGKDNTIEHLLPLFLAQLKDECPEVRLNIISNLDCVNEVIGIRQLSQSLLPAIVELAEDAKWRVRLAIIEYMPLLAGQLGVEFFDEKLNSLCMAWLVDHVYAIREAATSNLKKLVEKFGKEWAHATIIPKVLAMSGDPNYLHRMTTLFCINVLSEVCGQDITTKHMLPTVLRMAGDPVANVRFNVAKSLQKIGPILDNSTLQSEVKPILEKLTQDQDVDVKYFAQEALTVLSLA
UniProt Q07955: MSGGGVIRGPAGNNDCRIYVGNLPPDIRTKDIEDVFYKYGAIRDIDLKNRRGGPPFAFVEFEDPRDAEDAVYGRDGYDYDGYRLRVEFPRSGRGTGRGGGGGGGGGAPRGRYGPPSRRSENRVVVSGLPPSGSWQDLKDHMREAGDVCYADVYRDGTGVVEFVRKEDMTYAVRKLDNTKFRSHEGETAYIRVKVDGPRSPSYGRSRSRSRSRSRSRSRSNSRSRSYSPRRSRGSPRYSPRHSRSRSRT

Target: Tyrosine-protein phosphatase non-receptor type 11 (SHP2) (human (endogenous in human cell lines)) (UniProt Q06124)
Test: affinity purification with mass spectrometry; SHP2 IP analysed by LC-MS/MS; told only in the discussion, no method given

Row | Substance | binding
1 | p85α regulatory subunit of phosphoinositide-3-kinase (PI3K) (from UniProt P27986 1-724) | binds

Target: p85α regulatory subunit of phosphoinositide-3-kinase (PI3K) (human (endogenous in human cell lines)) (UniProt P27986)
Test: affinity purification with mass spectrometry; IP of endogenous p85α (rabbit polyclonal antibody) from 10 mg lysate (0.5% NP-40) of human NSCLC and multiple myeloma lines under serum, starvation or kinase inhibitors, short SDS-PAGE, LC-MS/MS; hits kept after reciprocal BLAST and subtraction of rabbit IgG controls

Row | Substance | binding
2 | 14-3-3 protein epsilon (from UniProt P62258 1-255) | binds
3 | 14-3-3 protein zeta/delta (from UniProt P63104 1-245) | binds
4 | 26S protease regulatory subunit 6A (from UniProt P17980 1-439) | binds
5 | 26S protease regulatory subunit S10B (from UniProt P62333 1-389) | binds
6 | Activator of 90 kDa heat shock protein ATPase homolog 1 (from UniProt O95433 1-338) | binds
7 | Clathrin heavy chain 1 (from UniProt Q00610 1-1675) | binds
8 | Coatomer subunit alpha (from UniProt P53621 1-1224) | binds
9 | E3 ubiquitin-protein ligase UBR5 (from UniProt O95071 1-2799) | binds
10 | FACT complex subunit SSRP1 (from UniProt Q08945 1-709) | binds
11 | Glyceraldehyde-3-phosphate dehydrogenase (from UniProt P04406 1-335) | binds
12 | Interleukin enhancer-binding factor 2 (from UniProt Q12905 1-390) | binds
13 | Kinesin-1 heavy chain (from UniProt P33176 1-963) | binds
14 | Liprin-alpha-1 (from UniProt Q13136 1-1202) | binds
15 | Nascent polypeptide-associated complex subunit alpha, muscle-specific form (from UniProt E9PAV3 1-2078) | binds
16 | Nuclease-sensitive element-binding protein 1 (from UniProt P67809 1-324) | binds
17 | Nucleolar phosphoprotein p130 (from UniProt Q14978 1-699) | binds
18 | Platelet-derived growth factor receptor alpha (from UniProt P16234 24-1089) | binds
19 | Probable global transcription activator SNF2L4 (from UniProt P51532 1-1647) | binds
20 | Puromycin-sensitive aminopeptidase (from UniProt P55786 1-919) | binds
21 | Serine/threonine-protein phosphatase 2A 65 kDa regulatory subunit A alpha isoform (from UniProt P30153 1-589) | binds
22 | Splicing factor, arginine/serine-rich 1 (from UniProt Q07955 1-248) | binds
23 | Succinate dehydrogenase [ubiquinone] flavoprotein subunit, mitochondrial (from UniProt P31040 43-664) | binds
24 | Tyrosine-protein phosphatase non-receptor type 11 (SHP2) (from UniProt Q06124-2 1-593) | binds
25 | UDP-glucose:glycoprotein glucosyltransferase 1 (from UniProt Q9NYU2 43-1555) | binds
